In US20040121965A1, “Method of treating resistant tumors” (Wyeth Holdings Corporation, priority 2002, published 2004):
Some results were stated once for a whole list of compounds, not compound by compound.

Test system: KB-V1 (MDR1++)
Assay: Cell survival assay (SRB), KB-V1 (MDR1++)
Settings: KB-V1, very high MDR1

Structure (SMILES) | resistance of KB-V1 cells [fold]
CC(=O)O[C@H]1C(=O)[C@@]2(C)[C@H]([C@H](OC(=O)c3ccccc3)[C@]3(O)C[C@H](OC(=O)[C@H](O)[C@@H](NC(=O)c4ccccc4)c4ccccc4)C(C)=C1C3(C)C)[C@]1(OC(C)=O)CO[C@@H]1C[C@@H]2O [paclitaxel, reference compound] | > 1000
CC[C@]1(O)C[C@@H]2CN(CCc3c([nH]c4ccccc34)[C@@](C(=O)OC)(c3cc4c(cc3OC)N(C)[C@H]3[C@@](O)(C(=O)OC)[C@H](OC(C)=O)[C@]5(CC)C=CCN6CC[C@]43[C@@H]65)C2)C1 [vinblastine, reference compound] | > 1000
